# Source: PubChem BioAssay AID1671195 (Yale University, 2021)
# Purpose: 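Genes whose knockdown alters LDL uptake in liver cancer cells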 (primary screen)
# Cell system: human Huh7 hepatoma cells
# Reagents: siRNA pool against human genes, 18 nM
# Time to read-out: about 2 to 2.5 days of knockdown, then 8 h LDL uptake
# Conditions: DiI-labelled LDL at 30 µg/ml for 8 h, in lipoprotein-deficient serum medium
# Measured: 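Per-cell DiI-LDL intensity by automated imaging; well means scaled to the plate median and given as a robust z-score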
# Scale: robust z-score: higher = more LDL uptake after knockdown
# Hit rule: 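a gene counts as active if at least two replicate z-scores exceed ±2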
# This is a random part of about 22,000 reagents tested. Over the whole deposit, about 1,510 (6.9%) are marked active. 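Active includes knockdowns raising or lowering LDL uptake; positive z-scores mean more uptake, negative mean less.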 A number with no mark means an inactive call.
Target gene,"robust z-score, replicate 1","robust z-score, replicate 2","robust z-score, replicate 3"
EMP2P1,0.286,0.273,0.142
CYP8B1,-0.716,-0.0309,-0.554
PPP2R3C,0.839,2.64,0.293
SNRPB,-0.293,-0.414,-0.233
ALG9,0.791,1.17,0.352
EXT2,-1.61,-1.54,-1.21
MRPL57,0.37,1.47,0.903
HCG9,-1.24,-0.458,1.67
CEP152,0.714,3.16,0.28
MARK2,0.597,-1.19,-1.07
SEMA6A,0.604,2.04,-0.00987
BTAF1,5.23 (active),2.84,3.4
FAM8A1,-1.13,-2.76,-1.44
SSR1,0.929,0.429,0.756
NRN1L,1.89 (active),4.26,4.1
LIPA,-0.487,-0.246,-0.556
ZNF558,-1.4,-1.44,-1.84
ABHD11,-0.71,-0.796,-0.727
DPP9,2.24 (active),1.91,1.78
ABHD5,1.2,0.13,0.487
TMEM132D,0.816,1.03,0.852
ARL14EP,-0.542,-0.704,-1.2
LHX8,-0.596,-0.851,-0.925
LRRC28,0.807 (active),2.11,2.22
PRKAA2,-0.0389,0.403,0.377
VCP,2.65 (active),1.73,3.08
RPL32P7,-1.78 (active),-2.23,-1.95
LOC389669 (retired record),0.149,0.863,0.738
EIF3M,-1.09,-0.347,-0.919
RFPL2,-0.497,-0.647,0.124
LOC389654 (retired record),0.742,1.64,1.61
SLC6A11,-0.0788,-0.0785,-0.107
LOC440152 (retired record),-0.529,-0.602,-0.318
OR4B1,-1.69,-1.86,-1.17
SH3BP4,-1.9,-1.16,-0.299
HES1,-1.69,-1.55,-1.07

The list goes on, starting with the last 5 of the part before.
Target gene,"robust z-score, replicate 1","robust z-score, replicate 2","robust z-score, replicate 3"
SLC6A11,-0.0788,-0.0785,-0.107
LOC440152 (retired record),-0.529,-0.602,-0.318
OR4B1,-1.69,-1.86,-1.17
SH3BP4,-1.9,-1.16,-0.299
HES1,-1.69,-1.55,-1.07
COL15A1,1.52,0.822,1.2
SLC46A3,0.0655,0.189,0.0936
ZMAT2,-0.294,-0.609,-0.752
EIF1B,-1.87,-0.928,1.5
ERCC5,-1.03,-1.14,-0.962
IL17F,-0.336,-0.115,0.062
UNC80,-1.2,-1.46,-1.49
TBC1D21,-0.489,-0.688,0.0637
SPTBN4,0.175,-0.285,0.0129
CEND1,2.77 (active),3.72,2.23
HSCB,0.23,0.0409,-0.691
OSTC,-0.384,-0.833,-0.698
OR4S2,-0.44,-0.00992,0.0977
PRPF39,-0.188,1.4,-1.87
NUDCD2,-1.05,0.358,0.261
N4BP2,0.921,-0.618,-0.864
YBEY,-0.276,-0.674,0.431
LOC286126 (retired record),-0.2,-0.75,-0.941
LINC02899,-0.689,0.0721,-0.192
SREBF2,4.06 (active),2.68,3.27
SYNPR,0.426,0.237,0.146
CEACAM1,-0.00391,-0.831,-0.544
ZNF571,0.358,-0.406,-0.667
OSBPL6,-0.0458,-1.44,-1.19
F2RL2,-1.22,0.154,-0.372
CFAP96,0.988,0.812,0.794
CADPS,-0.606,-0.558,-0.174
KYNU,0.0594,-0.829,-0.818
SENP7,-1.47,-0.802,-1.32
LOC387754 (retired record),-0.499,-0.759,-0.94
BRCC3,0.00327,-0.128,-0.65
GPR20,0.658,0.601,0.822
